Values quoted from earlier work as cited in US20060111848A1, “Identification and use of cofactor independent phosphoglycerate mutase as a drug target for pathogenic organisms and treatment of the same” (New England Biolabs, Inc., priority 2003, published 2006).
At least one compound was matched to its structure with a doubt left.

System: Wolbachia
Settings: administered to infected vertebrates; cited from earlier work

SMILES: CN(C)[C@@H]1C(O)=C(C(N)=O)C(=O)[C@@]2(O)C(O)=C3C(=O)c4c(O)cccc4[C@@](C)(O)[C@H]3C[C@@H]12 [Tetracycline]
- bacterial load within the worms: reduces the bacterial load
- effect on adult female worms: causes sterilization of adult females
